From PubChem BioAssay AID743255 (National Center for Advancing Translational Sciences (NCATS), 2014)
Among all 390,000 compounds or so, about 910 (0.23%) were called active. This list was built around the results that the source calls inconclusive (neither active nor inactive); the mix of calls is not that of the screen. Calls come from the whole dose curve; as a rule, active = well fitted inhibition curve with a large enough effect; inconclusive = small, poorly fitted or top-dose-only effect; inactive = no such curve, though single readings can be large or run the other way. Potencies beside an inconclusive call are fits to weak or partial responses and may not hold up.

Amino acid sequences for entries named in this document (tags omitted). A change or cut given only in a name is not applied to a line headed by its entry.
UniProt O94782: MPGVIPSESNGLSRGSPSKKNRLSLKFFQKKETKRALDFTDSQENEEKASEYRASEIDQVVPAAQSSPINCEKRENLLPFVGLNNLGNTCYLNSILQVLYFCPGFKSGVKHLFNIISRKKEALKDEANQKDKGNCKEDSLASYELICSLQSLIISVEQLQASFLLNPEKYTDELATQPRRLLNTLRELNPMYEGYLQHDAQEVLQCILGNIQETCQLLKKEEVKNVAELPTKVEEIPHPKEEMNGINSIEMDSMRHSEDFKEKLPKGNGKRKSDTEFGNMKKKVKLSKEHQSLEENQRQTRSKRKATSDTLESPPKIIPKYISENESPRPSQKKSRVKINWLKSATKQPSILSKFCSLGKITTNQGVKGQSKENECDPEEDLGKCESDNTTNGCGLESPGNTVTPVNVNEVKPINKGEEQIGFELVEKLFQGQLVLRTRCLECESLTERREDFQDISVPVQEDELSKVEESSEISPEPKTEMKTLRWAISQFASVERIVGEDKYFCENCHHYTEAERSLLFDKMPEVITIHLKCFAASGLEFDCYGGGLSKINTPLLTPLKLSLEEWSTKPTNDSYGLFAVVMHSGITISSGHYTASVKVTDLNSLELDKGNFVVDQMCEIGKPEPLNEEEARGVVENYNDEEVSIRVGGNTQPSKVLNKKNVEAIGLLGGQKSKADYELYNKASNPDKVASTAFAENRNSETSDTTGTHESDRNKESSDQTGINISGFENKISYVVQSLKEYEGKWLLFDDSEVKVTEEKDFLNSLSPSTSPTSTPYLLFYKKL

The compounds below were run against Ubiquitin carboxyl-terminal hydrolase 1 (Homo sapiens) (UniProt O94782) (assay: Inhibitors of USP1/UAF1: Primary Screen). Settings: recombinant USP1/UAF1, Ub-Rhodamine cleavage fluorescence; activity change, negative = inhibition: at 57.1 µM (top of the series).
Summary of the method: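 High-throughput fluorogenic screen: 1nM USP1/UAF1 complex, Ub-Rho substrate 150nM final, 50mM HEPES pH 7.8 with 0.5mM EDTA, 0.1 mg/ml BSA, 1mM TCEP and 0.01% Tween-20.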
% is set by controls: 0 for no effect and ±100 for the full control effect; potency is the fitted concentration of half-maximal effect.
Note: nearly all actives have a fitted effect of over 60% in size.

Potency, inconclusive:
COc1ccccc1/C=C/C=N/n1c(-c2ccco2)n[nH]c1=S 8.91 µM [inhibitor, partial curve], COc1ccc(Cl)cc1NC(=O)C1COc2ccccc2O1 (stereo not drawn) 50.1 µM [inhibitor, partial curve, poor fit], COc1ccccc1C(=O)Nc1ccc(N2CCN(Cc3ccccc3)CC2)cc1 31.6 µM [inhibitor, partial curve], CCCCNC(=O)c1onc(CSc2cc(C)ccc2C)c1C(=O)O 2.82 µM [inhibitor, full curve, poor fit], Cc1ccc(CNC(=O)c2ccc3c(c2)NC(=O)C(CS(=O)(=O)Cc2cccc(C)c2)N3)cc1 (stereo not drawn) 11.2 µM [inhibitor, partial curve], O=C(Nc1ccc2c(c1)C(=O)OC2)c1ccccc1Cl 7.08 µM [inhibitor, single point], CCCOc1ccc(C(=O)N(Cc2ccc(Cl)cc2)Cc2ccco2)cc1 0.794 µM [inhibitor, full curve, poor fit], CCN(CC)C(=O)c1sc2c(c1C)c(=O)n(-c1ccccc1)c(=O)n2CC(=O)N(CC)c1cccc(C)c1 50.1 µM [inhibitor, partial curve, poor fit], Cc1ccc(CSc2nnc(SCC(=O)N/N=C/c3c[nH]c4ccccc34)s2)cc1 12.6 µM [inhibitor, partial curve], O=C1/C(=C/N(C(=O)c2ccco2)c2ccc(Br)cc2)Sc2ccccc21 31.6 µM [inhibitor, partial curve], C=CCn1c(N)c(C(=O)NCC2CCCO2)c2nc3ccccc3nc21 (stereo not drawn) 35.5 µM [inhibitor, partial curve, poor fit], COc1ccc(C2C(C(=O)Nc3ccc(OC)c(OC)c3)c3ccccc3C(=O)N2C)cc1 (stereo not drawn) 8.91 µM [inhibitor, partial curve], COc1ccc(OCc2ccc(-c3nc(C#N)c(NCc4ccc(F)cc4)o3)o2)cc1 6.31 µM [inhibitor, single point], COc1cc(N)c2ncccc2c1Cl 20 µM [inhibitor, partial curve, poor fit], CCOC(=O)/C(=C\c1ccccc1)C(=O)c1cc(C(C)=O)c(Nc2ccccc2)s1 35.5 µM [inhibitor, partial curve, poor fit], CC(C)C[C@H](NC(=O)c1nc[nH]c1C(=O)NCc1ccccc1)C(=O)OC(C)(C)C 100 µM [inhibitor, partial curve, poor fit], CCOC(=O)C1=C(C)N=c2s/c(=C/c3ccco3)c(=O)n2C1c1cccc(OC)c1 (stereo not drawn) 39.8 µM [inhibitor, partial curve, poor fit], Cc1cc(C)c2c(=O)n3c(nc2c1)C(Cc1ccccc1)NC(=O)c1cc2ccccc2cc1-3 (stereo not drawn) 2.24 µM [inhibitor, full curve, poor fit], Cn1c(SCC(=O)Nc2ccc3c(c2)OCCO3)nnc1C1CC1 7.08 µM [inhibitor, full curve, poor fit], S=C(NCCCN1CCOCC1)NC1CCCC1 35.5 µM [inhibitor, partial curve], Cc1cc(=O)c2c(N(C)C)cccc2[nH]1 50.1 µM [inhibitor, partial curve, poor fit], Cc1ccc(CNC(=O)C2CCCN(c3nc4ccccc4n4cccc34)C2)cc1 (stereo not drawn) 5.62 µM [inhibitor, full curve, poor fit], CCOC(=O)C1CCCN(C(=O)C2CCCN(S(=O)(=O)c3ccc4c(c3)oc(=O)n4C)C2)C1 (stereo not drawn) 39.8 µM [inhibitor, partial curve, poor fit], COc1ccccc1CNC(=O)COC(=O)c1cc(-c2ccco2)nc2ccccc12 39.8 µM [inhibitor, single point], CCN1C(=O)[C@@H]2[C@@H](c3ccc(-c4cccc(Cl)c4)cc3)N3CCC[C@@]3(C(=O)OC)[C@@H]2C1=O 44.7 µM [inhibitor, partial curve, poor fit], Cc1ccc(OCCn2c(CNc3ccccc3C)nc3ccccc32)cc1 50.1 µM [inhibitor, partial curve, poor fit]

Activity change, negative = inhibition, inactive:
Cc1nc2nc(-c3ccc(F)cc3)cn2nc1C 2.91%, CCCOc1ccc(C2C(=O)N(C3CCCCCC3)CC(=O)N2C(C)C)cc1OC (stereo not drawn) 12.6%, CCCCNC(=S)Nc1ccc([N+](=O)[O-])cc1 -16%, Cc1ccc(NC(=O)Cn2c(=O)ccc3cc(S(=O)(=O)N4CCCC4)ccc32)cc1C -14.3%, O=C(NCc1cccs1)c1ccc2c(c1)sc1nc(-c3ccccc3)cn12 -10.2%, Cn1c(CNC(=O)CSc2nc(-c3ccccc3F)nc3cc(=O)[nH]n23)nc2ccccc21 -15.1%, CCCN1C(=O)SC(CC(=O)Nc2ccc(C)cc2)C1=O (stereo not drawn) -11%, Cc1ccc(S(=O)(=O)Nc2ccc(C(=O)N3CCCC3)cc2)cc1 -20.1%, Cc1ccc(S(=O)(=O)c2nc(-c3ccccc3)oc2N2CCCC2)cc1 -14.4%, CCc1cccc(C)c1NC(=O)C1=C(C(=O)O)CCCC1 -10.9%, Cc1ccc(C)c(CN2CCC(CNC(=O)C(CC(C)C)N3Cc4ccccc4C3=O)CC2)c1 (stereo not drawn) -8.78%, Cc1nc(-c2cccc(F)c2)sc1CCNC(=O)Cc1ccc(F)cc1 6.14%, O=C(Nc1ccccc1F)c1cc(-c2ccco2)nc2ccccc12 -9.6%, COC(=O)c1ccc(Cn2cnc3cnccc32)cc1 3.39%, COc1cc(-c2noc(-c3cc4cccc(C)c4oc3=O)n2)cc(OC)c1OC 3.11%, O=C(NC1CCCCC1)c1ccc2c(c1)N(Cc1ccc(F)cc1)C(=O)c1ccccc1S2(=O)=O -17.7%

Activity change, negative = inhibition, inconclusive:
C1CCc2c(nnc3c2-c2nonc2CC3)C1 -6.09% [inhibitor]
